Laboratory results: PubChem BioAssay AID1224826 (NIAID, 2016)

Purpose: 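Regulators of Tlr4 signalling leading to Tnf-alpha expression in macrophages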 (primary screen)
System: RAW264.7 G9 macrophages from mouse bearing reporters for p65 (GFP) and the Tnf promoter (mCherry)
Knock-down reagent: siRNA pool against mouse genes, 100 nM
Duration: 16 h of LPS stimulation, after 2 days of siRNA transfection
Treatment: bacterial lipopolysaccharide (Salmonella minnesota R595), 10 ng/ml
Measured: 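Imaged Tnf reporter mCherry in nuclei, minus background, normalised per plate to the median and expressed as robust z-scores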
Scale: Tnf reporter robust z-score: higher = stronger Tnf promoter reporter signal after LPS; Tnf reporter intensity: higher = stronger Tnf promoter reporter signal
Rule for the call: 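Called active when robust z-score is at most -1.3, matching the median of the Tlr4 knock-down control, or over 3; control wells and wells with under 50 cells never active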
Calls: active = Tnf reporter clearly lowered or raised; inactive = no clear change in Tnf reporter
In all, the deposit lists about 17,000 reagents; shown is a random part of them. About 1,110 of them (6.6%) were called active. 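Active means lowered or raised reporter signal; replicate intensities are raw and not normalised per plate.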

no.	gene	Tnf reporter robust z-score	fewer than 50 cells in well	Tnf reporter intensity, replicate 1	Tnf reporter intensity, replicate 2	call
1	Popdc3 (popeye domain containing 3)	0.67	enough cells in well	124	194	inactive
2	Speer4d (spermatogenesis associated glutamate (E)-rich protein 4D)		fewer than 50 cells per well; well left out of calls	93.2	49.3	inactive
3	Nkx2-2 (NK2 homeobox 2)	-0.04	enough cells in well	269	155	inactive
4	Ccna2 (cyclin A2)	-0.49	enough cells in well	233	148	inactive
5	Fcamr (Fc receptor, IgA, IgM, high affinity)	1.48	enough cells in well	275	269	inactive
6	Plekhj1 (pleckstrin homology domain containing J1)	-0.63	enough cells in well	102	102	inactive
7	Or5b106 (olfactory receptor family 5 subfamily B member 106)	0.13	enough cells in well	175	136	inactive
8	Mrpl15 (mitochondrial ribosomal protein L15)	0.99	enough cells in well	196	200	inactive
9	Iqcg (IQ motif containing G)		fewer than 50 cells per well; well left out of calls	121	94.1	inactive
10	Txndc2 (thioredoxin domain containing 2 (spermatozoa))	-2.32	enough cells in well	29.5	27.4	active
11	Prkar1a (protein kinase, cAMP dependent regulatory, type I, alpha)	-1.22	enough cells in well	78.3	93.7	inactive
12	Heatr3 (HEAT repeat containing 3)	-0.47	enough cells in well	181	136	inactive
13	Cyp2b10 (cytochrome P450, family 2, subfamily b, polypeptide 10)	0.4	enough cells in well	220	190	inactive
14	Atrn (attractin)	-0.94	enough cells in well	127	102	inactive
15	Hic2 (hypermethylated in cancer 2)	0.36	enough cells in well	252	199	inactive

Quoted from the entries so far for reference:
no.	gene	Tnf reporter robust z-score	fewer than 50 cells in well	Tnf reporter intensity, replicate 1	Tnf reporter intensity, replicate 2	call
5	Fcamr (Fc receptor, IgA, IgM, high affinity)	1.48	enough cells in well	275	269	inactive
6	Plekhj1 (pleckstrin homology domain containing J1)	-0.63	enough cells in well	102	102	inactive
7	Or5b106 (olfactory receptor family 5 subfamily B member 106)	0.13	enough cells in well	175	136	inactive
8	Mrpl15 (mitochondrial ribosomal protein L15)	0.99	enough cells in well	196	200	inactive
9	Iqcg (IQ motif containing G)		fewer than 50 cells per well; well left out of calls	121	94.1	inactive
10	Txndc2 (thioredoxin domain containing 2 (spermatozoa))	-2.32	enough cells in well	29.5	27.4	active

The list goes on.
no.	gene	Tnf reporter robust z-score	fewer than 50 cells in well	Tnf reporter intensity, replicate 1	Tnf reporter intensity, replicate 2	call
16	Hk3 (hexokinase 3)		fewer than 50 cells per well; well left out of calls	103	179	inactive
17	Ergic1 (endoplasmic reticulum-golgi intermediate compartment 1)	-0.84	enough cells in well	176	50.6	inactive
18	Pcdhgb5 (protocadherin gamma subfamily B, 5)	-0.14	enough cells in well	135	132	inactive
19	H13 (histocompatibility 13)	0.04	enough cells in well	320	118	inactive
20	Tulp4 (TUB like protein 4)		fewer than 50 cells per well; well left out of calls	116	75.4	inactive
21	Pomt2 (protein-O-mannosyltransferase 2)	-0.64	enough cells in well	120	83.7	inactive
22	Gp2 (glycoprotein 2 zymogen granule membrane)	0.36	enough cells in well	289	175	inactive
23	Vrk1 (vaccinia related kinase 1)		fewer than 50 cells per well; well left out of calls	112	101	inactive
24	Nfkbid	-0.33	enough cells in well	153	145	inactive
25	Adamdec1 (ADAM-like, decysin 1)	-0.02	enough cells in well	171	164	inactive
26	Lurap1l (leucine rich adaptor protein 1-like)	0.17	enough cells in well	209	162	inactive
27	Tacc1 (transforming, acidic coiled-coil containing protein 1)	-1.49	enough cells in well	65.5	89.6	active
28	Chml (choroideremia-like)	0.62	enough cells in well	280	269	inactive
29	Lmf2 (lipase maturation factor 2)	0.25	enough cells in well	222	205	inactive
30	Ro60 (Ro60, Y RNA binding protein)	0.8	enough cells in well	144	111	inactive
31	Slc51b	0.42	enough cells in well	114	204	inactive
32	Ferd3l (Fer3 like bHLH transcription factor)	-0.46	enough cells in well	173	140	inactive
33	Hnrnpf (heterogeneous nuclear ribonucleoprotein F)	0.59	enough cells in well	205	82.2	inactive
34	Hsbp1 (heat shock factor binding protein 1)	-0.11	enough cells in well	242	169	inactive
35	Bpifb6 (BPI fold containing family B, member 6)	-0.38	enough cells in well	107	141	inactive
36	Acot10 (acyl-CoA thioesterase 10)	1.8	enough cells in well	340	293	inactive
37	Nlrp9a (NLR family, pyrin domain containing 9A)	-0.25	enough cells in well	234	194	inactive
38	Txndc12 (thioredoxin domain containing 12 (endoplasmic reticulum))		fewer than 50 cells per well; well left out of calls	297	112	inactive
39	Hnrnpab (heterogeneous nuclear ribonucleoprotein A/B)	0.09	enough cells in well	231	185	inactive
40	Lin28a (lin-28 homolog A)	-0.38	enough cells in well	158	134	inactive
